Experimental data published in US10208007B2, “Use of strigolactones and strigolactone analogs for treating proliferative conditions” (The State of Israel, Ministry of Agriculture & Rural …, priority 2011, dated 2019).
At least one structure is not confirmed: it was looked up by name or label, or the drawing left a doubt. Some of these results come from one statement about several compounds together.

Experiments:
[1] = test system: A549; experiment: XTT viability assay; assay type: cell-based, human; conditions: A549, 3 days
Method: Viability was assayed after 3 days (XTT, ATCC). IC50 concentrations are indicated (Table 3 above).

[2] = test system: JNK1/2; experiment: Immunoblot of JNK1/2 activation with JNK inhibitor; assay type: cell-based, human; conditions: DU145 and U20S cells

CC1=CC(O/C=C2\Cc3c(n(C)c4cc(-c5cccs5)ccc34)C2=O)OC1=O (racemic) [MEB-55, (±) 2E-4-methyl-2-(4-methyl-5-oxo-2,5-dihydrofuran-2-yloxymethylene)-6-thiophen-2-yl-1,4-dihydro-2H-cyclopenta[b]indol-3-one]
IC50 at 72 h [1]: 4.8-6.5 ppm

CC1=CC(O/C=C2/C(=O)c3c(c4cc(-c5scc6c5OCCO6)ccc4n3C)C2C)OC1=O (stereo not drawn) [ST-362, (2E)-2-[(2,5-dihydro-4-methyl-5-oxofuran-2-yloxy)methylene]-1,2-dihydro-7-(2,3-dihydrothieno[3,4-b][1,4]dioxin-7-yl)-1,4-dimethyl-cyclopenta[b]indole-3-(4H)-one]
IC50 at 72 h [1]: 4.8-6.5 ppm

Oc1c2ccccc2c2c3c(cccc13)N=N2 [SP600125]
Activation of JNK1/2 kinase induced by strigolactone analogs [2]: only partially reduced the activation of JNK1/2 kinase
